Experimental data reported in PMC7804430, “Synthesis and tumour cell uptake studies of gadolinium(III)–phosphonium complexes” (Scientific Reports, 2021).

Assay: Competition (challenge) stability assay with xylenol orange at acidic pH
Assay type: physicochemical
Details: 10 concentrations 2.0–250 μM
Protocol: In this work, the relative stability of complexes 6 and 7 were compared to the previously-reported archetypal Gd(III)-DO3A triphenylphosphonium complex (11, shown in Fig. 2) at acidic pH by means of a competition (challenge) assay using the lanthanoid(III) ion indicator xylenol orange[32]. These assays were performed under mildly acidic conditions to ensure the phenolic hydroxyl was protonated prior to chelation.
Solution stability assays were performed using the method described by Barge et al.[32]. Initially an acetate buffer solution (50 mM) was prepared, a portion of which was adjusted to pH 5.8 using NaOH, while other portions were adjusted to pH 5.0, 4.0, or 3.0 using glacial acetic acid. Xylenol orange (5.81 mg) was dissolved in the pH 5.8 acetate buffer (48.4 mL) to give a 10 × concentrated stock solution. These solutions were treated as light sensitive, work was conducted in minimal light and solutions were covered in foil.
25 mM stock solutions of each GdCl3, […] 11 were prepared in the various buffer solutions. […] The plates were agitated in a plate reader and allowed to equilibrate for 24 h. […] The plates were again agitated in a plate reader and allowed to equilibrate for 15 min at RT. The absorbance values were then determined at both 573 nm and 433 nm by means of a BMG LABTECH POLARstar Omega, UV Spectrometer, and the data plotted and processed using Graphpad Prism 7.

[Cl][Gd]([Cl])[Cl] [GdCl3]
Gradient (slope of line of best fit) (pH 5.0): 3.83 × 10^−2 | Gradient (slope of line of best fit) (pH 5.8): 3.57 × 10^−2
